Screening data, single-dose tests

Measurements from “University of Dundee, Small-Polar-MMV Screening Library” (2021), ChEMBL document CHEMBL3988442.

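Whole-parasite assay of Trypanosoma brucei over 72 hours; the read-out is not stated. Compounds at 30 µM. Direction is inferred from retests: higher values go with stronger inhibition. Values scatter widely below zero; nearly all retest evidence comes from the higher of the two concentrations used. About 64,000 compounds were tested under these conditions; 1.5% (about 940) showed 50% or more at least once.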

Results are given as percent effect.
How 0% and 100% were set is not recorded. Most values in the screen are low, and negative values occur.
Compounds were drawn at random from those tested, without regard to their results.

Compound	effect
O=c1ccc2c(n1Cc1ccncc1)CCN(C1CCOC1)CC2 (stereo not shown)	-20.76
COc1ccc(Br)cc1CN(C)C(C)c1nc(C(C)C)no1 (stereo not shown)	-92.39
Cc1ccc(CNc2ccn(CCC(N)=O)n2)c(Br)c1	-46.62
Cc1cc(N(Cc2cccs2)C2CC2)n2nc(C(F)(F)F)nc2n1	-41.33
Cc1cc(C(=O)NCc2ccnc(OCC(F)(F)F)c2)on1	-37.48
Cc1ccc2c(c1)c(CNC(=O)C1CCCN(CC(N)=O)C1)nn2C (stereo not shown)	-4.155
NC(=O)CCOc1ccc(NC(=O)c2ccccc2OC(F)F)cc1	-0.7574
O=C(C1CCOC1)N1CCC2(CC1)CN(c1ncccn1)CCO2.O=C(O)C(F)(F)F (stereo not shown)	-24.56
O=C(Cc1ccc(F)cc1)NCC1CCN(Cc2ccsc2)CC1	-2.581
Cc1cc(NCc2cn(C)nc2-c2cccnc2)n(C)n1	-18.01
CCN(CC)C(=O)CN(C)C1CCc2ccccc21 (stereo not shown)	0.1754
OCC1(NCc2cccc(-n3cccn3)c2)CCOCC1	-0.4173
Cc1cc(N2CCCC(OC(=O)CCN3CCCC3=O)C2)nc(C)n1 (stereo not shown)	-47.11
Cc1c(F)cc(C(=O)O)cc1S(=O)(=O)Nc1ccc2c(c1)OCCO2	-8.362
CC(C)c1noc(OCC(=O)N2CCCCC2C)n1 (stereo not shown)	-18.15
O=C(O)C(F)(F)F.[H][C@@]12CCN(Cc3scnc3C)C[C@]1(C(=O)N1CCOCC1)CCO2	-69.96
O=C(NC1CC(=O)N(C2Cc3ccccc3C2)C1)c1ccoc1 (stereo not shown)	-29.8
[H][C@]12CN(CCOC)C(=O)[C@@]1([H])CN(c1ncccn1)C2	17.73
CNC(=O)CN1CCOCC12CCN(Cc1ccncc1)CC2.O=C(O)C(F)(F)F.O=C(O)C(F)(F)F	-9.122
COc1ccc(NC(=O)NC(C)c2nc[nH]n2)cc1 (stereo not shown)	9.718
[H][C@@]12COC[C@@H](Cc3nnc(C)o3)[C@]1([H])CN(C(=O)c1ccco1)C2	-56.3
CS(=O)(=O)N1CCN(C(=O)CCC2CCCO2)CC1 (stereo not shown)	-4.881
COc1cc(C(=O)N(CCC#N)Cc2ccccn2)ccc1C	33.36
CCCS(=O)(=O)NC(C)C(=O)NCc1ccnc(N2CCCC2)c1 (stereo not shown)	-19.21
CC(C)(C)CN1CCCC12CCN(S(=O)(=O)c1ccccc1)C2.O=C(O)C(F)(F)F (stereo not shown)	-285.3
COCC(=O)N[C@H](C)c1onc(-c2ccc(OC)cc2)c1C(=O)O	-45.3
COc1ncccc1NC(=O)N1CCC(C(=O)NC(C)C)CC1	-11.09
O=C(O)C(F)(F)F.O=C(c1cccnc1)N1CCc2ncnc(C3CCOC3)c2CC1 (stereo not shown)	-13.43
Cc1nc(C2CCN2c2ncccn2)cc(N(C)C)n1 (stereo not shown)	-7.815
Cc1nc(COC[C@H]2CCC[C@@]23CN(C(C)C)CCO3)cs1.O=C(O)C(F)(F)F	19.86
COc1ccc(-n2ccnc2-c2cnc(N(C)C)nc2)cc1OC	-17.99
CC(=O)N1CCCC1c1ccc(-c2c(C)noc2C)cn1 (stereo not shown)	-4.778
O=C(O)C(F)(F)F.[H][C@@]12CO[C@@H](CNC(=O)c3nccn3C)[C@]1([H])CCN(C)C2	-30.7
O=C(O)C(F)(F)F.O=C(O)C(F)(F)F.[H][C@@]12C[C@@H](OCc3cccnc3)CN1CCN(C(=O)c1ccnnc1)C2	-69.22
COCCNC(=O)CN1CC=C(n2c(C)nc(=O)c3ccccc32)CC1	8.561
Cc1nc(CC(C)C)cc(C(=O)N2C[C@@H](CN(C)C)[C@@H](CO)C2)n1	-50.05
CC(C)CC(=O)N1CCN(c2cc(N(C)C)cnn2)CC1	6.965
Cc1noc(NC(=O)c2cccc(Br)c2)n1	69.68
Cc1cc(S(=O)(=O)NC(=O)CCc2cncc(F)c2)c(C)s1	5.501
CCOC(C)c1noc(CN(C)C(=O)c2cc3ccccn3c2)n1 (stereo not shown)	5.595
Cl.c1cnc2c(c1)cc([C@H]1CCCO1)n2CCN1CCCC1	24.71
Cc1cnn(CC2CN(CCc3ccncc3)CCO2)c1 (stereo not shown)	-95.55
CC(C)CNS(=O)(=O)c1ccc(C(=O)N(C)CCc2cn[nH]c2)cc1	-19.73
COCCCNC(=O)c1ccccc1-n1cc(CN(C)C)cn1	-2.771
COc1ccc(N2CCN(C(=O)c3nc(Cl)sc3C(C)C)CC2)cc1	-12.27
Cc1cnn(C2CCCN(C(=O)Cc3c(C)nn(C)c3C)C2)c1 (stereo not shown)	-16.8
Cc1cccc(N2CCN(C(=O)NC(C)c3nncn3C)CC2)c1 (stereo not shown)	-3.918
CN(Cc1cnc2ccccc2c1)C(=O)C(c1ccccc1F)N(C)C (stereo not shown)	26.4
CN(Cc1ccc2c(c1)OCO2)C(=O)C1CC(c2cccc(F)c2)=NO1 (stereo not shown)	10.71
Cc1cc(C)cc(OCC(O)CN2CCN(c3nccs3)CC2)c1 (stereo not shown)	-27.85
O=C(O)CC(O)(CC(=O)O)C(=O)O.c1ccc(CC2CCN(Cc3ccnc(-c4cccnc4)n3)CC2)cc1	37.24
O=C1C(Sc2nnnn2C2CC2)CCN1c1ccccc1F (stereo not shown)	11.08
Cc1ccc([C@@H]2CN(C(=O)c3ccon3)C[C@H]2NC(=O)C2CC2)cc1	-36.23
O=C(O)C(F)(F)F.O=S(=O)(C1CC1)N1CCOC2(CCCN(Cc3ccccn3)C2)C1 (stereo not shown)	-44.45
O=C(Cn1cc(Cl)cn1)Nc1ccc2c(c1)OCO2	28.43
Cc1cccc(C(=O)N2CCN(S(C)(=O)=O)[C@@H](C)C2)c1Cl	-21.47
Cn1cc(-c2nnc3sc(C4CCC4)nn23)cn1	-18.67
OCCNc1nccc(-c2c[nH]nc2-c2ccncc2)n1	-25.73
O=C(O)C(F)(F)F.O=C(c1ccccn1)N1CCC2(CC1)COC(COCC1CCCC1)C2 (stereo not shown)	38.41
Cc1noc(C)c1CN(C)C(=O)C1CCN(S(N)(=O)=O)CC1	-41.61
COc1ccc(CN2C[C@@H](CN(C)C)[C@@H](CO)C2)c(Cl)c1OC	-4.549
Cl.FC(F)CNc1cnc(C2CCNCC2)cn1	8.197
CCCc1noc(CCC(=O)N2CCCC2c2ccsc2)n1 (stereo not shown)	-44.02
COc1ccc(-c2nnc(C(C)N3CCOCC3)o2)cc1 (stereo not shown)	-27.17
O=C(COCC1CC1)Nc1ncccc1I	-12.94
Cc1cnn(CCNCc2csc(-c3ccccc3)n2)c1	1.802
COc1cnc(N2CCC(c3ncc[nH]3)CC2)nc1	-45.43
Cc1cc(C)n(CCCN(C)C(=O)C2COc3ccccc3C2)n1 (stereo not shown)	-16.69
c1cnc(OCc2nnc3n2CCN(CC2CCOCC2)C3)nc1	34.57
COc1ccc(CC(=O)N2CCC[C@@H](N)[C@@H]2c2ccccc2F)cc1.Cl	4.872
O=C(NC1CCC(O)CC1)c1cnc2c(cnn2C2CCCC2)c1 (stereo not shown)	8.537
Cc1ccn(Cc2nc(C(C)OCC(C)C)no2)c(=O)c1 (stereo not shown)	-56
Clc1cc(NCc2nccs2)nc2[nH]ccc12	-37.07
Cc1ccc(-c2nc(CNCC3CN(C)CCO3)co2)c(C)c1 (stereo not shown)	99.99
CS(=O)(=O)N1CC[C@]2(C[C@@H](Oc3ccccn3)CO2)C1.O=C(O)C(F)(F)F	-68.12
CC(C)CC(CCO)CNC(=O)N1CCC1(C)C (stereo not shown)	-20.3
CCOc1ccnc(N2CCN(C(=O)c3cccnc3)CC2)n1	9.507
Cc1cccc(Nc2ccc(C3CCN(Cc4ncc[nH]4)CC3)nc2)n1	15.65
CC(=O)N1CCCCC1c1nc(N)ncc1-c1ccccc1 (stereo not shown)	30.31
CN(C)C(=O)CN1CCC2(COCc3cnc(N4CCOCC4)nc32)C1.O=C(O)C(F)(F)F (stereo not shown)	-248.4

Repeated from the top, 5 entries:

| Compound | effect |
|---|---|
| `O=c1ccc2c(n1Cc1ccncc1)CCN(C1CCOC1)CC2` (stereo not shown) | -20.76 |
| `COc1ccc(Br)cc1CN(C)C(C)c1nc(C(C)C)no1` (stereo not shown) | -92.39 |
| `Cc1ccc(CNc2ccn(CCC(N)=O)n2)c(Br)c1` | -46.62 |
| `Cc1cc(N(Cc2cccs2)C2CC2)n2nc(C(F)(F)F)nc2n1` | -41.33 |
| `Cc1cc(C(=O)NCc2ccnc(OCC(F)(F)F)c2)on1` | -37.48 |